Test results reported in PubChem BioAssay AID485314 (National Center for Advancing Translational Sciences (NCATS), 2010).
Among all 340,000 compounds or so, about 4,500 (1.3%) were called active. The inconclusive results got no clear call from the source; some entries with a clear call stand among them for comparison. Calls follow the shape of the dose curve; as a rule, active = well fitted inhibition curve with a large enough effect; inconclusive = small, poorly fitted or top-dose-only effect, or another doubt; inactive = no such curve, though single readings can be large or run the other way. Where the call is inconclusive, the potency comes from a doubtful curve fit.

biological target: DNA polymerase beta (Homo sapiens) (UniProt P06746); experiment: qHTS Assay for Inhibitors of DNA Polymerase Beta; conditions: Pol beta primer extension/strand displacement, fluorescence kinetic; activity change, negative = inhibition: at 114 µM (top of the series)
Method in brief: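 Kinetic readout of DNA synthesis with strand displacement by Pol beta. Compound and 10 nM enzyme sit 15 min at room temperature; 50 nM substrate starts the reaction, read immediately and at 10 min.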
% is scaled to controls: 0 for no effect and ±100 for the full control effect; potency is read from the fitted curve at half-maximal effect.

Row | SMILES | Potency | activity change, negative = inhibition
1 | CC1=NOC(=O)/C1=C\c1ccc(-c2cccc(Cl)c2)o1 | inconclusive: 44.7 µM [inhibitor, partial curve, poor fit] | –
2 | Cc1cc(C)n2nc(CNC(=O)c3cccc(N(C)C)c3)nc2n1 | inactive | –
3 | CSc1ccc(/C=N/NC(=O)c2cc(O)cc(O)c2)cc1 | inactive | –
4 | CCc1ccc(NC(=O)C2(c3ccccc3)CC2(Cl)Cl)cc1 (centres undefined) | inconclusive: 89.1 µM [inhibitor, single point] | –
5 | CCOc1ccc(N(CC(=O)Nc2c(C)n(C)n(-c3ccccc3)c2=O)S(=O)(=O)c2ccccc2)cc1 | inconclusive: 63.1 µM [inhibitor, single point] | –
6 | CC(NCc1ccc2c(c1)n(C)c(=O)n2C)c1ccccc1 (centres undefined) | inactive | –
7 | CCN(CC)c1ncnc2sc(C(=O)N3CCN(c4ccc(OC)cc4)CC3)c(C)c12 | inactive | –
8 | Cn1c(=O)[nH]c(Nc2ccc(F)cc2)c([N+](=O)[O-])c1=O | inactive | –
9 | Cc1oc(-c2ccccc2Cl)cc1-c1nn2c(-c3ccco3)nnc2s1 | inconclusive: 44.7 µM [inhibitor, partial curve] | –
10 | CC1CN(CC(=O)NCc2ccc(Cl)cc2)CC(C)O1 (centres undefined) | inconclusive: 2.24 µM [inhibitor, single point] | –
11 | O=c1c2c(nc3cc(-c4ccc(F)cc4)[nH]n13)CCCC2 | active: 17.8 µM | –
12 | COc1c(Br)cc(/C=N/n2c(-c3ccccc3)n[nH]c2=S)c(O)c1Br | active: 3.55 µM | –
13 | CSc1nn(CC(=O)Nc2ccc(C)cc2C)c(N)c1S(=O)(=O)c1ccc(Cl)cc1 | inconclusive: 89.1 µM [inhibitor, single point] | –
14 | CCn1cc(C(=O)N(C)c2cc(C)ccc2C)c2cc(OC)c(OC)cc2c1=O | inconclusive: 3.55 µM [inhibitor, single point] | –
15 | Cc1ccc(N=C2C(=O)Nc3c(C)cccc32)cc1 | inconclusive: 10 µM [inhibitor, single point] | –
16 | Cc1cccc(C)c1NC(=O)CSCC(=O)O | inactive | –
17 | CCC(=O)c1ccc(Oc2ccc(C(=O)c3ccc(C)cc3)cc2[N+](=O)[O-])cc1 | inactive | –
18 | C=C1c2cccc(O)c2C(O)=C2C(=O)[C@]3(O)C(O)=C(C(N)=O)C(=O)[C@@H](N(C)C)[C@@H]3[C@@H](O)[C@H]12 | active: 11.2 µM | –
19 | CCOC(=O)C1CCCN(C2CC(=O)N(c3ccc(C)c(C)c3)C2=O)C1 (centres undefined) | inconclusive: 89.1 µM [inhibitor, single point] | –
20 | S=c1[nH]c(-c2ccc(Cl)cc2)cs1 | inconclusive: 0.141 µM [inhibitor, full curve, poor fit] | –
21 | Cc1c(Cl)cccc1NC(=S)NC1CCCC1 | inconclusive: 1 µM [inhibitor, full curve, poor fit] | –
22 | COc1ccccc1NC(=S)N/N=C1\CC(C)(C)Oc2ccc(O)cc21 | inactive | –
23 | COc1cc(/C=C2\SC(=S)N(c3cccnc3)C2=O)ccc1O | – | inconclusive: -87.1% [inhibitor]

Row | SMILES | Potency | activity change, negative = inhibition
24 | COc1cccc(NC(=O)Cn2c(=O)oc3cc(S(=O)(=O)N4CCCC4)ccc32)c1 | – | inconclusive: -32.2% [inhibitor]
25 | CC(C)c1cc(NCCCN2CCOCC2)n2c(nc3ccccc32)c1C#N | inconclusive: 89.1 µM [inhibitor, single point] | –
26 | CN(C)N1C(=O)CC(N2CCCC2)C1=O (centres undefined) | inconclusive: 100 µM [inhibitor, single point] | –
27 | CCOc1cccc(Nc2cc3n(c(=O)n2)CCc2cc(OC)c(OC)cc2-3)c1 | inconclusive: 56.2 µM [inhibitor, partial curve, poor fit] | –
28 | COc1ccc(C(=O)Nc2cccc(NC(C)=O)c2)cc1OC | active: 8.91 µM | –
29 | O=C(c1ccc([N+](=O)[O-])cc1)n1nc(-c2ccccc2)nc1NCc1ccccc1 | inconclusive: 3.55 µM [inhibitor, full curve, poor fit] | –
30 | COc1ccc(S(=O)(=O)N2CCC(O)(c3ccc(Cl)cc3)CC2)cc1 | inconclusive: 0.224 µM [inhibitor, full curve, poor fit] | –
31 | COc1cc(/C=N/NC(=O)c2cc(-c3cccn3C)n[nH]2)cc(OC)c1OC | inconclusive: 0.562 µM [inhibitor, full curve] | –
32 | Cn1c(SCC(=O)NCc2ccco2)nnc1-c1ccc(S(=O)(=O)N2CCOCC2)cc1 | inconclusive: 25.1 µM [inhibitor, full curve, poor fit] | –
33 | CC(C)C[C@@H](C(=O)NCc1ccco1)N1C(=O)N2CCc3c([nH]c4ccccc34)[C@@]2(C)C1=O | inconclusive: 100 µM [inhibitor, single point] | –
34 | CC(=O)NS(=O)(=O)c1ccc(NC(=O)c2cc(-c3ccc(C)cc3)nc3ccccc23)cc1 | inactive | –
35 | COC(=O)c1c(NC(=O)CSc2nncs2)sc2c1CCCCC2 | inconclusive: 7.94 µM [inhibitor, full curve, poor fit] | –
36 | COc1ccc(/C=C2/SC(=S)N(CCCC(=O)Nc3cccc(O)c3)C2=O)cc1 | inconclusive: 89.1 µM [inhibitor, single point] | –
37 | C(=N\Nc1nc2ccccc2s1)/c1ccccn1 | inconclusive: 14.1 µM [inhibitor, partial curve, poor fit] | –
38 | C/C(=N/NC(=O)c1cccs1)c1cccs1 | inactive | –
39 | Cc1ccccc1OCC(=O)N/N=C/c1sc(=O)n(Cc2cccc(C(=O)O)c2)c1Cl | inconclusive: 89.1 µM [inhibitor, single point] | –
40 | Cn1c(=O)[nH]c(=O)c2c1nc(NC1CCCCC1)n2Cc1ccccc1 | inconclusive: 17.8 µM [inhibitor, partial curve] | –
41 | CN(C)c1ccc(C2SCCN2C(=O)c2ccc([N+](=O)[O-])cc2)cc1 (centres undefined) | inactive | –
42 | Cc1ccc(C)c(N2CCN(C(=O)c3ccc(-c4nc(COc5ccccc5)c(C)o4)cc3)CC2)c1 | inactive | –
43 | CCOC(=O)c1c(-c2ccc(OC)cc2)cn2ccccc12 | inconclusive: 89.1 µM [inhibitor, single point] | –
44 | CCOc1ccc(NC(=O)N2CCC(c3nc4ccccc4[nH]3)CC2)cc1 | inconclusive: 39.8 µM [inhibitor, single point] | –
45 | O=C(OCc1cc(=O)n2nc(-c3cccs3)sc2n1)c1cccc(Cl)c1 | active: 39.8 µM | –
46 | Cc1ccc(-c2cn3cc([N+](=O)[O-])ccc3n2)cc1 | inconclusive: 70.8 µM [inhibitor, single point] | –

A second format for three compounds above.
Row	SMILES	Potency	activity change, negative = inhibition
37	C(=N\Nc1nc2ccccc2s1)/c1ccccn1	inconclusive: 14.1 µM [inhibitor, partial curve, poor fit]	–
38	C/C(=N/NC(=O)c1cccs1)c1cccs1	inactive	–
39	Cc1ccccc1OCC(=O)N/N=C/c1sc(=O)n(Cc2cccc(C(=O)O)c2)c1Cl	inconclusive: 89.1 µM [inhibitor, single point]	–

Carrying on.

Row | SMILES | Potency | activity change, negative = inhibition
47 | COc1ccc(S(=O)(=O)c2c(N)n(Cc3ccco3)c3nc4ccccc4nc23)cc1 | inconclusive: 12.6 µM [inhibitor, full curve] | –
48 | O=C(O)C1CC=CCC1C(=O)Nc1ccc2c(c1)OCCO2 (centres undefined) | active: 20 µM | –
49 | Cn1cc(/C=C2\SC(=S)N(N3CCOCC3)C2=O)c2ccccc21 | inconclusive: 63.1 µM [inhibitor, single point] | –
50 | Fc1cccc(Cl)c1CSc1nnc(CNc2ccccc2)o1 | inconclusive: 63.1 µM [inhibitor, single point] | –
51 | CN1/C(=C\C(=O)COC(=O)Cn2nnc(-c3ccccc3)n2)C(C)(C)c2ccccc21 | inconclusive: 44.7 µM [inhibitor, partial curve] | –
52 | Cc1oc2c(c1C(=O)Nc1ccc(F)c(F)c1)C1=NCCN1C=N2 | inconclusive: 3.98 µM [inhibitor, single point] | –
53 | CCc1cccc(CC)c1NC(=O)CCS(=O)(=O)c1ccc(Br)s1 | active: 20 µM | –
54 | Cn1cc(-c2cc3n(n2)CCC(=O)N3CCCC(=O)NCc2ccc(F)cc2)c2ccccc21 | inconclusive: 0.126 µM [inhibitor, full curve, poor fit] | –
55 | CCn1c2ccccc2c2cc(NC(=O)CSc3nnc(-c4ccccc4)o3)ccc21 | inconclusive: 31.6 µM [inhibitor, partial curve] | –
56 | O=C(Cc1ccc(Cl)cc1)Nc1ccc(NC(=O)c2ccccc2)cc1 | inconclusive: 1.78 µM [inhibitor, full curve, poor fit] | –
57 | CCc1ccc(/C=N/NC(=O)c2c[nH]c3ccccc23)s1 | inconclusive: 89.1 µM [inhibitor, single point] | –
58 | O=c1[nH]c2cccnc2n1Cc1ccccc1 | inactive | –
59 | Cc1sc2nc(SCc3ccc(C(=O)O)cc3)n(Cc3ccco3)c(=O)c2c1C | – | inconclusive: -32.1% [inhibitor]
60 | CC(=O)CSc1cc(-c2ccccc2)nc2ncnn12 | inconclusive: 7.08 µM [inhibitor, partial curve, poor fit] | –
61 | N#C/C(=C\c1ccc(O)c(O)c1)C(=O)NCCCc1ccccc1 | inconclusive: 79.4 µM [inhibitor, partial curve, poor fit] | –
62 | COc1ccc(Cn2ccnc2SCC(=O)Nc2ccc3c(c2)OCO3)cc1 | inactive | –
63 | O=C(/C=C/c1ccco1)N1CCc2ccccc21 | inconclusive: 31.6 µM [inhibitor, full curve] | –
64 | CCC(=O)N1N=C(c2ccc(Cl)cc2)CC1c1ccco1 (centres undefined) | inactive | –
65 | CCOC(=O)CC(=O)CSc1ncnc2c1nnn2-c1ccc(OC)cc1 | inconclusive: 5.62 µM [inhibitor, full curve, poor fit] | –
66 | O=C(COC(=O)c1cccc(S(=O)(=O)N2CCc3ccccc32)c1)Nc1ncc(Cl)cc1Cl | inconclusive: 79.4 µM [inhibitor, single point] | –
67 | CCS(=O)(=O)N1Cc2ccccc2CC1C(=O)NCCc1ccccc1 (centres undefined) | active: 50.1 µM | –
68 | CSc1n[nH]c(-c2ccc(C(F)(F)F)cc2)n1 | inconclusive: 3.55 µM [inhibitor, full curve, poor fit] | –
69 | C/C(=N\NC(=O)c1cccc2ccccc12)c1ccccn1 | inconclusive: 10 µM [inhibitor, partial curve] | –

Part of the list above, with each value named.
O=C(/C=C/c1ccco1)N1CCc2ccccc21
  Potency: inconclusive: 31.6 µM [inhibitor, full curve]
CCC(=O)N1N=C(c2ccc(Cl)cc2)CC1c1ccco1 (centres undefined)
  Potency: inactive
